Assay results: the supplement of paper PMC12819154, “High-throughput peptide-centric local stability assay extends protein–ligand identification to membrane proteins, tissues and bacteria” (Nature Structural & Molecular Biology, 2025)
Some of the results follow. Most values lie at the level of the controls, where differences are scatter.

Amino acid sequences for entries named in this document (tags omitted). A change or cut given only in a name is not applied to a line headed by its entry.
UniProt Q497V6: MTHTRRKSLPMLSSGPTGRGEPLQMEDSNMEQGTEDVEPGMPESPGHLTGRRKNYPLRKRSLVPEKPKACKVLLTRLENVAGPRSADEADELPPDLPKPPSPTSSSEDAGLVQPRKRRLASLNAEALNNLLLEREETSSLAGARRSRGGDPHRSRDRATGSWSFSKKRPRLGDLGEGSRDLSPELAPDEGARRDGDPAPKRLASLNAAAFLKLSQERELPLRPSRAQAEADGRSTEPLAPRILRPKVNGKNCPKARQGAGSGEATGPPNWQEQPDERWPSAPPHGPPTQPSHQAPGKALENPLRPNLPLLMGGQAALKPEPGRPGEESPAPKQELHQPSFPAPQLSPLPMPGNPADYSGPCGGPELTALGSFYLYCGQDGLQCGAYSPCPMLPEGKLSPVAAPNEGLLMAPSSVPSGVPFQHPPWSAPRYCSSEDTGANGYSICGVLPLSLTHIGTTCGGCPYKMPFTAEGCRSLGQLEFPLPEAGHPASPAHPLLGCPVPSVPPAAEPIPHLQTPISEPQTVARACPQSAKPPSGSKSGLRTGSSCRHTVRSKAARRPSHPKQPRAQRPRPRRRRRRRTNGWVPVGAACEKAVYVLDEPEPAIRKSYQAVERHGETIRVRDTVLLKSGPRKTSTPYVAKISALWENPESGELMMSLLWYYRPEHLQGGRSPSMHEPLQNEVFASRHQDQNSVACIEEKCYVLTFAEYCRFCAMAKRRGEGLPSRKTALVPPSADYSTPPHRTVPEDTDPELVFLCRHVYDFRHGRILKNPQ
UniProt Q3UPL0: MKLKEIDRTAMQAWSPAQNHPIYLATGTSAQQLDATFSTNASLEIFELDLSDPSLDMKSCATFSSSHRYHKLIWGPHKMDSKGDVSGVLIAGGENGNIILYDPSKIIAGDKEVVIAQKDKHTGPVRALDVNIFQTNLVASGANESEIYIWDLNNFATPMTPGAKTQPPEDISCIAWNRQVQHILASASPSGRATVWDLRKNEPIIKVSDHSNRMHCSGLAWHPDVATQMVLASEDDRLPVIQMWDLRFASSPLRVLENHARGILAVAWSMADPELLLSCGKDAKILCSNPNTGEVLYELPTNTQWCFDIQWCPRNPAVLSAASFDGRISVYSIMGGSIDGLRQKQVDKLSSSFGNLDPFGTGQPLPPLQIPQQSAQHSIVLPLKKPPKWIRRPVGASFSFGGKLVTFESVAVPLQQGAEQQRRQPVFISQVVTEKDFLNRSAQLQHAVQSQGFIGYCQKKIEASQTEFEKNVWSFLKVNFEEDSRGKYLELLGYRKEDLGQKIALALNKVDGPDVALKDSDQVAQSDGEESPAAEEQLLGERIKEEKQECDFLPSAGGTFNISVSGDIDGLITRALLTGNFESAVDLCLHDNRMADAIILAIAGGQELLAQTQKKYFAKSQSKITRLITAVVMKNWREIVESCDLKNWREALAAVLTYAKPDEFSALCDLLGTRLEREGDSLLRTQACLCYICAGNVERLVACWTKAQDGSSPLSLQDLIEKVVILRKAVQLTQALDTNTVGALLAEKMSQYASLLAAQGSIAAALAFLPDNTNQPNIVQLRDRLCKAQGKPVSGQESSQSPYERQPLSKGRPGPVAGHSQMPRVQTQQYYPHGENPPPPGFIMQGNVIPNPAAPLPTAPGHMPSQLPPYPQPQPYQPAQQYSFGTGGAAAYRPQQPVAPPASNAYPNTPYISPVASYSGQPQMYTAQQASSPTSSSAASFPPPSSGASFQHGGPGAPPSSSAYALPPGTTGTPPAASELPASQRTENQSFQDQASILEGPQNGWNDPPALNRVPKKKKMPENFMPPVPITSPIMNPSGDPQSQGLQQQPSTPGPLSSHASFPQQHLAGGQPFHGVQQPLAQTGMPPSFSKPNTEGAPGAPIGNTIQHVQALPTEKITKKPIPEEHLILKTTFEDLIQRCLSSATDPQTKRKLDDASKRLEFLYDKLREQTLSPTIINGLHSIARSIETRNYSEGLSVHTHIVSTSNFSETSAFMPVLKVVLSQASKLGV
UniProt Q3UDW8: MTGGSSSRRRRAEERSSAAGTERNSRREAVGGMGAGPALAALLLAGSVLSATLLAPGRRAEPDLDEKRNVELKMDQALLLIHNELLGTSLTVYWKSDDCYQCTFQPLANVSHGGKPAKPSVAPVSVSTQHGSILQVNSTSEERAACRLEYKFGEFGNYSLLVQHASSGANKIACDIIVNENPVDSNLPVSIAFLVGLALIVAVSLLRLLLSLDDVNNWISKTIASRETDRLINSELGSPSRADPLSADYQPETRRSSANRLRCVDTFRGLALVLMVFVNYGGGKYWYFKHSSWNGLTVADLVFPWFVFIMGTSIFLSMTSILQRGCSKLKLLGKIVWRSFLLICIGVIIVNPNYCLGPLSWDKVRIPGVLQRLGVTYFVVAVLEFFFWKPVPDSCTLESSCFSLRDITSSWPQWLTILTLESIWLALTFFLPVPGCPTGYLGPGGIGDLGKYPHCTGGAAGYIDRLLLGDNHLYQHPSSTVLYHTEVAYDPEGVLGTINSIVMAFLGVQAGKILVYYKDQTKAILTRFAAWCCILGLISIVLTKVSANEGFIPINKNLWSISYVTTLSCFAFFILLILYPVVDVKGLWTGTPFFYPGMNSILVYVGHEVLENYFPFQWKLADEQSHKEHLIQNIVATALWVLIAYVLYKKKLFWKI
UniProt Q499X9: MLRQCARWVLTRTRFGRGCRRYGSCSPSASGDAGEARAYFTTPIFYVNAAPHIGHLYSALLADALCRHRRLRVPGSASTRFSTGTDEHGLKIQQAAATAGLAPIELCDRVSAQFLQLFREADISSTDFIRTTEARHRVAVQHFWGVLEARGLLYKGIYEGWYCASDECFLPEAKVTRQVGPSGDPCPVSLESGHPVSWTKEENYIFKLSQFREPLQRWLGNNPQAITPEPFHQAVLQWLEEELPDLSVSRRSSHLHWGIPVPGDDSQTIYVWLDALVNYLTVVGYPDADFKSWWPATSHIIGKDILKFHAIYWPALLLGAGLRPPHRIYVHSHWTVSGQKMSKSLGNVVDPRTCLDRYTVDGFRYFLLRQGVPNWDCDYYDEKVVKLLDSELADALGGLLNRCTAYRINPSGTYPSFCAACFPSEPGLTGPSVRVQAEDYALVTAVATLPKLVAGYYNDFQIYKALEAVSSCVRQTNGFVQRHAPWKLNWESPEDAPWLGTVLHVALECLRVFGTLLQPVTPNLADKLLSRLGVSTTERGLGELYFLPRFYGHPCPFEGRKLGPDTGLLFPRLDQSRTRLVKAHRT
UniProt Q5DTX6: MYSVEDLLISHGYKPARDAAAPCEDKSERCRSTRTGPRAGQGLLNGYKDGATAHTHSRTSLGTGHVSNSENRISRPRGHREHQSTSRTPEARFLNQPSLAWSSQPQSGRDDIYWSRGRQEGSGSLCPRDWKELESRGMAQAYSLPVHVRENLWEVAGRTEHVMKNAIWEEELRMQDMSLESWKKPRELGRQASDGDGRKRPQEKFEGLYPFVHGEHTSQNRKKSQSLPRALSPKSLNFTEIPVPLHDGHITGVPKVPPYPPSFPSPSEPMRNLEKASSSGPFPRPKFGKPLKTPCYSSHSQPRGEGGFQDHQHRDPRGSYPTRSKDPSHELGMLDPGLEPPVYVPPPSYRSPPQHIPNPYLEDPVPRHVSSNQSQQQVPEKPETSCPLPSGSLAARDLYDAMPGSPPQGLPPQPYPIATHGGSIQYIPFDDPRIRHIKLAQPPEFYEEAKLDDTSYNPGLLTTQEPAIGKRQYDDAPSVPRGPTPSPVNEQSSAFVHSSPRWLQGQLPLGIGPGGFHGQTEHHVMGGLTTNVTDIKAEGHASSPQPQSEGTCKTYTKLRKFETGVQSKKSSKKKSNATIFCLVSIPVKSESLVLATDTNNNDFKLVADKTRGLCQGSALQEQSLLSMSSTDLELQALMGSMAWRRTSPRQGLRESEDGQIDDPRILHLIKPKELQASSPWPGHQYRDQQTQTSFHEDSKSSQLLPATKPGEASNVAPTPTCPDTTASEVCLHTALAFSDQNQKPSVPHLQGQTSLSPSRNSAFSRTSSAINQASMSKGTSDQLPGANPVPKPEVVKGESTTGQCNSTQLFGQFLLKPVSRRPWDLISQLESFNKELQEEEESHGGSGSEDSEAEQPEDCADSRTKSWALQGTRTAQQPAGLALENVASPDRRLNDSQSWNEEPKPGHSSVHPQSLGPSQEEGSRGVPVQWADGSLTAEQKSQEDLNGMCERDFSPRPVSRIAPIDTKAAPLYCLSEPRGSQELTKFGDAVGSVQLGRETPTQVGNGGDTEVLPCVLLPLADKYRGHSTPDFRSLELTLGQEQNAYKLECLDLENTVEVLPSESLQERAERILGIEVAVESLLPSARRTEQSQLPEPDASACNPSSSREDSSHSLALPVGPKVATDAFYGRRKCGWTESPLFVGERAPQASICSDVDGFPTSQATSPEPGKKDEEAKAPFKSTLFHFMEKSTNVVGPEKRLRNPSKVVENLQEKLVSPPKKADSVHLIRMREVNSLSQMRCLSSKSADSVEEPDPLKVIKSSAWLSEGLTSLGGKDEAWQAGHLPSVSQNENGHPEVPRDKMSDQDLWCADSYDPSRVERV
UniProt Q3UHC2: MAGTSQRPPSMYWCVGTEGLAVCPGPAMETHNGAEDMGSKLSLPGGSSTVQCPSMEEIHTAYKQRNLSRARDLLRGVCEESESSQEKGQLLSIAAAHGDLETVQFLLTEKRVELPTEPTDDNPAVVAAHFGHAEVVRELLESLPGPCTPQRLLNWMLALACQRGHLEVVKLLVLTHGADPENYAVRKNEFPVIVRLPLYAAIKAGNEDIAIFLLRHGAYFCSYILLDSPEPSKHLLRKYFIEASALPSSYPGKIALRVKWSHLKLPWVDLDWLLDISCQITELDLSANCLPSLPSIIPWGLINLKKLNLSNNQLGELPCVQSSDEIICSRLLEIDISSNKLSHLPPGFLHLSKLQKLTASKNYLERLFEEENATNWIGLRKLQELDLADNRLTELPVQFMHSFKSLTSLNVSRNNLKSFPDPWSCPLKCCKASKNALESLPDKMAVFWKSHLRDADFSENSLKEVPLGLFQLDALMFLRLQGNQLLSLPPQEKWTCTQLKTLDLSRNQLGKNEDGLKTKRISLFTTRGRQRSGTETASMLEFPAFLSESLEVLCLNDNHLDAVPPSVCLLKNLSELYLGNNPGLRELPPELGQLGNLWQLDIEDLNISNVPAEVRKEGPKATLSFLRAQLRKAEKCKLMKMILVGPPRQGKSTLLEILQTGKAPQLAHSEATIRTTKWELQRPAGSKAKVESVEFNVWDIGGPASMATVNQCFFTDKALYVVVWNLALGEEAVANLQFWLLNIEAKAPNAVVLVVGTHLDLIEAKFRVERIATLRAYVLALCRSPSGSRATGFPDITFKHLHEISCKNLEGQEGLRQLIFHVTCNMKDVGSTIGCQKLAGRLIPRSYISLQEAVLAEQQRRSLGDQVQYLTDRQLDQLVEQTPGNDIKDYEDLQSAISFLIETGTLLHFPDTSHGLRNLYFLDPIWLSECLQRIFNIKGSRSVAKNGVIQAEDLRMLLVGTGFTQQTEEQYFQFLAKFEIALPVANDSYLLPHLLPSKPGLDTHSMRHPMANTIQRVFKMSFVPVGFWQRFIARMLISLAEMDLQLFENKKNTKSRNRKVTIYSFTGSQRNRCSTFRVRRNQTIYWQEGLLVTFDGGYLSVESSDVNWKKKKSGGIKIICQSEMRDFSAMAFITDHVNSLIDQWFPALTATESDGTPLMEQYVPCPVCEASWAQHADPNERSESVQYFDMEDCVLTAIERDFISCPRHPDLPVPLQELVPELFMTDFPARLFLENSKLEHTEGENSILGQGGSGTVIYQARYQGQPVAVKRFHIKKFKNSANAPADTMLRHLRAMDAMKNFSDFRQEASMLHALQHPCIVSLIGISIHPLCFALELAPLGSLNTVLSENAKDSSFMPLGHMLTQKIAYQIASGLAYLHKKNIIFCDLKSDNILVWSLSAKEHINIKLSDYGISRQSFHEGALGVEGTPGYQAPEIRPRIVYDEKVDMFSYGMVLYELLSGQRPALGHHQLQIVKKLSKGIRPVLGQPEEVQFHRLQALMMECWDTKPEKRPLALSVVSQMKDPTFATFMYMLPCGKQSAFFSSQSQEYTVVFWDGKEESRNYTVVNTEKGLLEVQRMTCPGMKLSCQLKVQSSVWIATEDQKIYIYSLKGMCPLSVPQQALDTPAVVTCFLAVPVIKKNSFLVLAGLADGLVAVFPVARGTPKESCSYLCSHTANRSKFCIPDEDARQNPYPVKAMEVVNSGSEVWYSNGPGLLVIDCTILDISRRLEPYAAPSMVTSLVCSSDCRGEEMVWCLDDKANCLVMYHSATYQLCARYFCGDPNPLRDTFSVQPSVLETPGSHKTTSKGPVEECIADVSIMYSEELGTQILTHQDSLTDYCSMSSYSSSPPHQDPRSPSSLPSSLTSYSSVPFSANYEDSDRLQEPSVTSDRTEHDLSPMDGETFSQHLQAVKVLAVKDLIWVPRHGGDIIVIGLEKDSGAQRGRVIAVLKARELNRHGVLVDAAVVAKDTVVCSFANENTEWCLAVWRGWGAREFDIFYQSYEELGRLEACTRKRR

Compound: CN[C@@H]1C[C@H]2O[C@@](C)([C@@H]1OC)n1c3ccccc3c3c4c(c5c6ccccc6n2c5c31)C(=O)NC4 [staurosporine]
Experiment: log2 fold change of tryptic peptide abundance, ligand vs vehicle (limited proteolysis) (log2 ratio); higher = more trypsin-susceptible (destabilized)
Settings: ligand concentration: 20 uM; sample: mouse liver crude lysate; replicate design: treated separately

Q: How did the log2 fold change turn out when “UniProt Q497V6 (peptide sequence: SLVPEKPK, peptide start residue: 61)” was run?
A: -0.328

Q: For “UniProt Q3UPL0 (peptide sequence: NVWSFLK, peptide start residue: 471)”, which log2 fold change is on record?
A: -0.18

Q: With “UniProt Q3UDW8 (peptide sequence: ADPLSADYQPETRR, peptide start residue: 242)” as the target, how does the log2 fold change read?
A: 0.11

Q: How did the log2 fold change turn out when “UniProt Q499X9 (peptide sequence: EADISSTDFIR, peptide start residue: 120)” was run?
A: -0.639

Q: For “UniProt Q5DTX6 (peptide sequence: ESEDGQIDDPR, peptide start residue: 654)”, which log2 fold change is on record?
A: 0.346

Q: “UniProt Q3UHC2 (peptide sequence: LLVLTHGADPENYAVR, peptide start residue: 171)” was tested. Which log2 fold change did it give?
A: 0.564
